Values of other authors, collected in article PMC10950897, “VCF1 is a p97/VCP cofactor promoting recognition of ubiquitylated p97-UFD1-NPL4 substrates” (Nature Communications, 2024).

Amino acid sequences for entries named in this document (tags omitted). A change or cut given only in a name is not applied to a line headed by its entry.
UniProt Q969W3: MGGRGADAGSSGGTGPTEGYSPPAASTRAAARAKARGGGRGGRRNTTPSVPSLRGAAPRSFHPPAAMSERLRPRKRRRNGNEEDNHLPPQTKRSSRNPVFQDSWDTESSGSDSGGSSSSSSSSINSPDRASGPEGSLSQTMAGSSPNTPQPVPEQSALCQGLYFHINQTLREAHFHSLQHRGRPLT

System: HeLa cells
Conditions: cited from earlier work

In the case of “VCF1: human FAM104A isoform 1, 186 amino acids (UniProt Q969W3); recombinant Strep-HA-tagged”, the expression level (endogenous VCF1) is given as ~ 6000 copies/HeLa cell, the “abundance relative to UFD1-NPL4 and p47” value (less abundant) is given as “approximately 100 fold” and the “abundance relative to p97” value (less abundant) is given as ~ 1000 fold.
